This is a noisy data set.
Tested on: Sindbis virus TE/5'2J-GFP
Test: percent infected (GFP+ in RFP+ ISG-expressing cells); higher = more infection (less antiviral activity)
Settings: experiment: primary screen (single well)

Sequence	percent infected (BHK/HA-Zeo (control)) [%]	percent infected (BHK/NZAP-Zeo (ZAP)) [%]
MENFILYEEIGRGSKTVVYKGRRKGTINFVAILCTDKCKRPEITNWVRLTREIKHKNIVTFHEWYETSNHLWLVVELCTGGSLKTVIAQDENLPEDVVREFGIDLISGLHHLHKLGILFCDISPRKILLEGPGTLKFSNFCLAKVEGENLEEFFALVAAEEGGGDNGENVLKKSMKSRVKGSPVYTAPEVVRGADFSISSDLWSLGCLLYEMFSGKPPFFSESISELTEKILCEDPLPPIPKDSSRPKASSDFINLLDGLLQRDPQKRLTWTRLLQHSFWKKAFAGADQESSVEDLSLSRNTMECSGPQDSKELLQNSQSRQAKGHKSGQPLGHSFRLENPTEFRPKSTLEGQLNESMFLLSSRPTPRTSTAVEVSPGEDMTHCSPQKTSPLTKITSGHLSQQDLESQMRELIYTDSDLVVTPIIDNPKIMKQPPVKFDAKILHLPTYSVDKLLFLKDQDWNDFLQQVCSQIDSTEKSMGASRAKLNLLCYLCVVAGHQEVATRLLHSPLFQLLIQHLRIAPNWDIRAKVAHVIGLLASHTAELQENTPVVEAIVLLTELIRENFRNSKLKQCLLPTLGELIYLVATQEEKKKNPRECWAVPLAAYTVLMRCLREGEERVVNHMAAKIIENVCTTFSAQSQGFITGEIGPILWYLFRHSTADSLRITAVSALCRITRHSPTAFQNVIEKVGLNSVINSLASAICKVQQYMLTLFAAMLSCGIHLQRLIQEKGFVSTIIRLLDSPSTCIRAKAFLVLLYILIYNREMLLLSCQARLVMYIERDSRKTTPGKEQQSGNEYLSKCLDLLICHIVQELPRILGDILNSLANVSGRKHPSTVQVKQLKLCLPLMPVVLHLVTSQVFRPQVVTEEFLFSYGTILSHIKSVDSGETNIDGAIGLTASEEFIKITLSAFEAIIQYPILLKDYRSTVVDYILPPLVSLVQSQNVEWRLFSLRLLSETTSLLVNQEFGDGKEKASVDSDSNLLALIRDVLLPQYEHILLEPDPVPAYALKLLVAMTEHNPTFTRLVEESKLIPLIFEVTLEHQESILGNTMQSVIALLSNLVACKDSNMELLYEQGLVSHICNLLTETATLCLDVDNKNNNEMAAPLLFSLLDILHSMLTYTSGIVRLALQAQKSGSGEDPQAAEDLLLLNRPLTDLISLLIPLLPNEDPEIFDVSSKCLSILVQLYGGENPDSLSPENVEIFAHLLTSKEDPKEQKLLLRILRRMITSNEKHLESLKNAGSLLRALERLAPGSGSFADSAVAPLALEILQAVGH [ULK4]	97.5	92.5
MEPAPARSPRPQQDPARPQEPTMPPPETPSEGRQPSPSPSPTERAPASEEEFQFLRCQQCQAEAKCPKLLPCLHTLCSGCLEASGMQCPICQAPWPLGADTPALDNVFFESLQRRLSVYRQIVDAQAVCTRCKESADFWCFECEQLLCAKCFEAHQWFLKHEARPLAELRNQSVREFLDGTRKTNNIFCSNPNHRTPTLTSIYCRGCSKPLCCSCALLDSSHSELKCDISAEIQQRQEELDAMTQALQEQDSAFGAVHAQMHAAVGQLGRARAETEELIRERVRQVVAHVRAQERELLEAVDARYQRDYEEMASRLGRLDAVLQRIRTGSALVQRMKCYASDQEVLDMHGFLRQALCRLRQEEPQSLQAAVRTDGFDEFKVRLQDLSSCITQGKDAAVSKKASPEAASTPRDPIDVDLPEEAERVKAQVQALGLAEAQPMAVVQSVPGAHPVPVYAFSIKGPSYGEDVSNTTTAQKRKCSQTQCPRKVIKMESEEGKEARLARSSPEQPRPSTSKAVSPPHLDGPPSPRSPVIGSEVFLPNSNHVASGAGEAEERVVVISSSEDSDAENSSSRELDDSSSESSDLQLEGPSTLRVLDENLADPQAEDRPLVFFDLKIDNETQKISQLAAVNRESKFRVVIQPEAFFSIYSKAVSLEVGLQHFLSFLSSMRRPILACYKLWGPGLPNFFRALEDINRLWEFQEAISGFLAALPLIRERVPGASSFKLKNLAQTYLARNMSERSAMAAVLAMRDLCRLLEVSPGPQLAQHVYPFSSLQCFASLQPLVQAAVLPRAEARLLALHNVSFMELLSAHRRDRQGGLKKYSRYLSLQTTTLPPAQPAFNLQALGTYFEGLLEGPALARAEGVSTPLAGRGLAERASQQS [PML]	98.8	93.3
MEQHFLGCVKRAWDSAEVAPEPQPPPIVSSEDRGPWPLPLYPVLGEYSLDSCDLGLLSSPCWRLPGVYWQNGLSPGVQSTLEPSTAKPTEFSWPGTQKQQEAPVEEVGQAEEPDRLRLQQLPWSSPLHPWDRQQDTEVCDSGCLLERRHPPALQPWRHLPGFSDCLEWILRVGFAAFSVLWACCSRICGAKQP [C5orf39]	96.8	48.1
MEQWDHFHNQQEDTDSCSESVKFDARSMTALLPPNPKNSPSLQEKLKSFKAALIALYLLVFAVLIPLIGIVAAQLLKWETKNCSVSSTNANDITQSLTGKGNDSEEEMRFQEVFMEHMSNMEKRIQHILDMEANLMDTEHFQNFSMTTDQRFNDILLQLSTLFSSVQGHGNAIDEISKSLISLNTTLLDLQLNIENLNGKIQENTFKQQEEISKLEERVYNVSAEIMAMKEEQVHLEQEIKGEVKVLNNITNDLRLKDWEHSQTLRNITLIQGPPGPPGEKGDRGPTGESGPRGFPGPIGPPGLKGDRGAIGFPGSRGLPGYAGRPGNSGPKGQKGEKGSGNTLTPFTKVRLVGGSGPHEGRVEILHSGQWGTICDDRWEVRVGQVVCRSLGYPGVQAVHKAAHFGQGTGPIWLNEVFCFGRESSIEECKIRQWGTRACSHSEDAGVTCTL [MSR1]	98.6	97.2
MERISAFFSSIWDTILTKHQEGIYNTICLGVLLGLPLLVIITLLFICCHCCWSPPGKRGQQPEKNKKKKKKKKKKDEEDLWISAQPKLLQMEKRPSLPV [KIAA0040]	97.2	81.2
MESKYKEILLLTGLDNITDEELDRFKFFLSDEFNIATGKLHTANRIQVATLMIQNAGAVSAVMKTIRIFQKLNYMLLAKRLQEEKEKVDKQYKSVTKPKPLSQAEMSPAASAAIRNDVAKQRAAPKVSPHVKPEQKQMVAQQESIREGFQKRCLPVMVLKAKKPFTFETQEGKQEMFHATVATEKEFFFVKVFNTLLKDKFIPKRIIIIARYYRHSGFLEVNSASRVLDAESDQKVNVPLNIIRKAGETPKINTLQTQPLGTIVNGLFVVQKVTEKKKNILFDLSDNTGKMEVLGVRNEDTMKCKEGDKVRLTFFTLSKNGEKLQLTSGVHSTIKVIKAKKKT [AIM2]	97.3	85.1
METGFPAIMYPGSFIGGWGEEYLSWEGPGLPDFVFQQQPVESEAMHCSNPKSGVVLATVARGPDACQILTRAPLGQDPPQRTVLGLLTANGQYRRTCGQGITRIRCYSGSENAFPPAGKKALPDCGVQEPPKQGFDIYMDELEQGDRDSCSVREGMAFEDVYEVDTGTLKSDLHFLLDFNTVSPMLVDSSLLSQSEDISSLGTDVINVTEYAEEIYQYLREAEIRHRPKAHYMKKQPDITEGMRTILVDWLVEVGEEYKLRAETLYLAVNFLDRFLSCMSVLRGKLQLVGTAAMLLASKYEEIYPPEVDEFVYITDDTYTKRQLLKMEHLLLKVLAFDLTVPTTNQFLLQYLRRQGVCVRTENLAKYVAELSLLEADPFLKYLPSLIAAAAFCLANYTVNKHFWPETLAAFTGYSLSEIVPCLSELHKAYLDIPHRPQQAIREKYKASKYLCVSLMEPPAVLLLQ [CCNA1]	98.4	97.6
METLSNASGTFAIRLLKILCQDNPSHNVFCSPVSISSALAMVLLGAKGNTATQMAQALSLNTEEDIHRAFQSLLTEVNKAGTQYLLRTANRLFGEKTCQFLSTFKESCLQFYHAELKELSFIRAAEESRKHINTWVSKKTEGKIEELLPGSSIDAETRLVLVNAIYFKGKWNEPFDETYTREMPFKINQEEQRPVQMMYQEATFKLAHVGEVRAQLLELPYARKELSLLVLLPDDGVELSTVEKSLTFEKLTAWTKPDCMKSTEVEVLLPKFKLQEDYDMESVLRHLGIVDAFQQGKADLSAMSAERDLCLSKFVHKSFVEVNEEGTEAAAASSCFVVAECCMESGPRFCADHPFLFFIRHNRANSILFCGRFSSP [SERPINB9]	97.3	88.5
MEVTTRLTWNDENHLRKLLGNVSLSLLYKSSVHGGSIEDMVERCSRQGCTITMAYIDYNMIVAFMLGNYINLHESSTEPNDSLWFSLQKKNDTTEIETLLLNTAPKIIDEQLVCRLSKTDIFIICRDNKIYLDKMITRNLKLRFYGHRQYLECEVFRVEGIKDNLDDIKRIIKAREHRNRLLADIRDYRPYADLVSEIRILLVGPVGSGKSSFFNSVKSIFHGHVTGQAVVGSDITSITERYRIYSVKDGKNGKSLPFMLCDTMGLDGAEGAGLCMDDIPHILKGCMPDRYQFNSRKPITPEHSTFITSPSLKDRIHCVAYVLDINSIDNLYSKMLAKVKQVHKEVLNCGIAYVALLTKVDDCSEVLQDNFLNMSRSMTSQSRVMNVHKMLGIPISNILMVGNYASDLELDPMKDILILSALRQMLRAADDFLEDLPLEETGAIERALQPCI [IFI44L]	97.9	82
MFAKGKGSAVPSDGQAREKLALYVYEYLLHVGAQKSAQTFLSEIRWEKNITLGEPPGFLHSWWCVFWDLYCAAPERRDTCEHSSEAKAFHDYSAAAAPSPVLGNIPPNDGMPGGPIPPGFFQGPPGSQPSPHAQPPPHNPSSMMGPHSQPFMSPRYAGGPRPPIRMGNQPPGGVPGTQPLLPNSMDPTRQQGHPNMGGSMQRMNPPRGMGPMGPGPQNYGSGMRPPPNSLGPAMPGINMGPGAGRPWPNPNSANSIPYSSSSPGTYVGPPGGGGPPGTPIMPSPADSTNSSDNIYTMINPVPPGGSRSNFPMGPGSDGPMGGMGGMEPHHMNGSLGSGDIDGLPKNSPNNISGISNPPGTPRDDGELGGNFLHSFQNDNYSPSMTMSV [SSBP3]	89.2	48.9
MFLLPLPAAGRVVVRRLAVRRFGSRSLSTADMTKGLVLGIYSKEKEDDVPQFTSAGENFDKLLAGKLRETLNISGPPLKAGKTRTFYGLHQDFPSVVLVGLGKKAAGIDEQENWHEGKENIRAAVAAGCRQIQDLELSSVEVDPCGDAQAAAEGAVLGLYEYDDLKQKKKMAVSAKLYGSGDQEAWQKGVLFASGQNLARQLMETPANEMTPTRFAEIIEKNLKSASSKTEVHIRPKSWIEEQAMGSFLSVAKGSDEPPVFLEIHYKGSPNANEPPLVFVGKGITFDSGGISIKASANMDLMRADMGGAATICSAIVSAAKLNLPINIIGLAPLCENMPSGKANKPGDVVRAKNGKTIQVDNTDAEGRLILADALCYAHTFNPKVILNAATLTGAMDVALGSGATGVFTNSSWLWNKLFEASIETGDRVWRMPLFEHYTRQVVDCQLADVNNIGKYRSAGACTAAAFLKEFVTHPKWAHLDIAGVMTNKDEVPYLRKGMTGRPTRTLIEFLLRFSQDNA [LAP3]	97.1	92.3
MFSWMGRQAGGRERAGGADAVQTVTGGLRSLYLRKVLPLEEAYRFHEFHSPALEDADFENKPMILLVGQYSTGKTTFIRYLLEQDFPGMRIGPEPTTDSFIAVMYGETEGSTPGNALVVDPKKPFRKLSRFGNAFLNRFMCSQLPNQVLKSISVIDSPGILSGEKQRISRGYDFCQVLQWFAERVDRIILLFDAHKLDISDEFSEAIKAFRGQDDKIRVVLNKADQVDTQQLMRVYGALMWSLGKVINTPEVLRVYIGSFWAQPLQNTDNRRLFEAEAQDLFRDIQSLPQKAAVRKLNDLIKRARLAKVHAYIISYLKKEMPSVFGKENKKRELISRLPEIYIQLQREYQISAGDFPEVKAMQEQLENYDFTKFHSLKPKLIEAVDNMLSNKISPLMNLISQEETSTPTQLVQGGAFDGTTEGPFNQGYGEGAKEGADEEEWVVAKDKPVYDELFYTLSPINGKISGVNAKKEMVTSKLPNSVLGKIWKLADCDCDGMLDEEEFALAKHLIKIKLDGYELPSSLPPHLVPPSHRKSLPKAD [EHD4]	98.1	94.3

Source: the supplement of paper PMC3353916
